Experimental data reported in the supplement of paper PMC6411743.
± gives the standard deviation of the averaged measurements. This is one part of the list.

Biological target: T1, UniProt P55036 and related entries
T1 sequence (whole entry): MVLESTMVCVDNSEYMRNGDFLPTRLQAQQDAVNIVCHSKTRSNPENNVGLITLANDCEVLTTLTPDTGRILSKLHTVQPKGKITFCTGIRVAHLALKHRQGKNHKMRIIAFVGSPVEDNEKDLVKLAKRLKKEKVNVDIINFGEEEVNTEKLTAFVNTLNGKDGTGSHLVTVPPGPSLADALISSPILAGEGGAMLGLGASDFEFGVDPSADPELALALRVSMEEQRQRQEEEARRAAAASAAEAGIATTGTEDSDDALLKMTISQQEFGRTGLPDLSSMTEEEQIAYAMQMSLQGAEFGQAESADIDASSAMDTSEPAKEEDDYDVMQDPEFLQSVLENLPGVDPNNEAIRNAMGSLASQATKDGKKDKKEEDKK
Test: NP40-soluble protein abundance relative to vehicle (solubility fold change) (ratio); higher = more soluble protein in presence of GTP
Procedure: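 Solubility proteome profiling in Jurkat crude lysate. Lysate was treated with Mg-GTP (0.1-10 mM) for 10 min at room temperature and 3 min at 37 °C, then solubilised with 0.8% NP40 and benzonase, followed by ultracentrifugation. Proteins were quantified by TMT10 LC-MS/MS; the value is the NP40-soluble abundance relative to the NP40-processed vehicle, from 3 independent experiments.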

Question: How did the NP40-soluble protein abundance (concentration: 0.1mM) turn out when Nc1nc2c(ncn2[C@@H]2O[C@H](COP(=O)(O)OP(=O)(O)OP(=O)(O)O)[C@@H](O)[C@H]2O)c(=O)[nH]1 [guanosine triphosphate] was run?
Answer: Its NP40-soluble protein abundance is 0.929 ± 0.091.

Question: What about the NP40-soluble protein abundance (concentration: 0.5mM) of the same molecule?
Answer: The NP40-soluble protein abundance was 0.96 ± 0.078.

Question: And the NP40-soluble protein abundance (concentration: 1mM)?
Answer: Its NP40-soluble protein abundance is 0.923 ± 0.064.

Question: What about the NP40-soluble protein abundance (concentration: 2mM) of the same molecule?
Answer: Its NP40-soluble protein abundance is 0.975 ± 0.068.

Question: What about the NP40-soluble protein abundance (concentration: 4mM) of the same molecule?
Answer: The NP40-soluble protein abundance was 0.98 ± 0.13.

Question: What about the NP40-soluble protein abundance (concentration: 6mM) of the same molecule?
Answer: Its NP40-soluble protein abundance is 0.988 ± 0.1.

Question: What about the NP40-soluble protein abundance (concentration: 8mM) of the same molecule?
Answer: Its NP40-soluble protein abundance is 0.972 ± 0.084.

Question: What about the NP40-soluble protein abundance (concentration: 10mM) of the same molecule?
Answer: The NP40-soluble protein abundance was 0.994 ± 0.11.
